According to the supplement of paper PMC6411743:
± gives the standard deviation of the averaged measurements. This is a selection; strong and weak results do not stand in their true shares. Most values lie at the level of the controls, where differences are scatter.

Amino acid sequences for entries named in this document (tags omitted). A change or cut given only in a name is not applied to a line headed by its entry.
UniProt Q99719: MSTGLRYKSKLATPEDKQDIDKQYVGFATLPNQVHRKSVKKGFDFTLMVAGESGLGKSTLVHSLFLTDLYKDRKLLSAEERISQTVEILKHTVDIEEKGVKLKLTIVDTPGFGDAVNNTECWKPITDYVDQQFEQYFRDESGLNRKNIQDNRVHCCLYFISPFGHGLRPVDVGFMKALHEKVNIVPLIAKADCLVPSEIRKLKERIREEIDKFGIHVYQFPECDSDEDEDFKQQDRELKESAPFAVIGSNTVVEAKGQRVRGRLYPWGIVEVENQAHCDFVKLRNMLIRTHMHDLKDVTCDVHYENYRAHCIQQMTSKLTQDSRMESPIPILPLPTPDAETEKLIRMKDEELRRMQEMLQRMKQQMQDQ
UniProt Q9BSJ8: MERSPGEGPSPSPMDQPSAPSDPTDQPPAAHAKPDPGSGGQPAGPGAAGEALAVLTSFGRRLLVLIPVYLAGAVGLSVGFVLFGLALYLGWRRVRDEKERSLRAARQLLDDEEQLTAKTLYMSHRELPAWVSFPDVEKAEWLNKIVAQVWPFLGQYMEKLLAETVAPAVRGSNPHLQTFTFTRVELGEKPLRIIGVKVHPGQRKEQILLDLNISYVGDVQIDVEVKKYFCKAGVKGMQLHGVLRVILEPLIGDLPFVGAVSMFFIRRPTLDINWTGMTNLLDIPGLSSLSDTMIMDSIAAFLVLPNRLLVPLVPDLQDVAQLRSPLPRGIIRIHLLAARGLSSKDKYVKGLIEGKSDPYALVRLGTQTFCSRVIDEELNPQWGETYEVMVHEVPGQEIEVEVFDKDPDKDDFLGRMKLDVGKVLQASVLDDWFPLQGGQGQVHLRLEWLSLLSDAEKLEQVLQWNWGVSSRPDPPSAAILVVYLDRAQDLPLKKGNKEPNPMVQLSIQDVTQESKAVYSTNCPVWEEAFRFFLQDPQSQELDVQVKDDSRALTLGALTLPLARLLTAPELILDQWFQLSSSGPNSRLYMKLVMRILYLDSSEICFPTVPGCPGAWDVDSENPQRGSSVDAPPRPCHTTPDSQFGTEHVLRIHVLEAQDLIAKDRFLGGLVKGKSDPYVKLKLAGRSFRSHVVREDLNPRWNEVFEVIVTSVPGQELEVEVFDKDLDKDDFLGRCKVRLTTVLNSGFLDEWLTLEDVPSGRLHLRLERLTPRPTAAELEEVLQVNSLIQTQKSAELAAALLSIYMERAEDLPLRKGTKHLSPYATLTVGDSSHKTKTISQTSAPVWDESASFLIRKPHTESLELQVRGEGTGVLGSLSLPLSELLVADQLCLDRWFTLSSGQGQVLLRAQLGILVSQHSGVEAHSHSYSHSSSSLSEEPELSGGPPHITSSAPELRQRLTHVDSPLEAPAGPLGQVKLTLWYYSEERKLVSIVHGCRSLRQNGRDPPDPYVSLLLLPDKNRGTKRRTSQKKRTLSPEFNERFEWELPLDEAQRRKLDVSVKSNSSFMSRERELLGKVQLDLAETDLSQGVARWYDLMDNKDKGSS
UniProt Q9BT09: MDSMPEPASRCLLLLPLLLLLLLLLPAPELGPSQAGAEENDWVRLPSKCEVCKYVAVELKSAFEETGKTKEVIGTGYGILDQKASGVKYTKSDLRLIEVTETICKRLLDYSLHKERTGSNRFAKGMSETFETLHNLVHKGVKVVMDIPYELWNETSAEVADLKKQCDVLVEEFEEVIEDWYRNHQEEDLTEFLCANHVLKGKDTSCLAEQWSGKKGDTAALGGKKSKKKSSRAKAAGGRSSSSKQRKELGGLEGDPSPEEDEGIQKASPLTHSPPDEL
UniProt Q99717: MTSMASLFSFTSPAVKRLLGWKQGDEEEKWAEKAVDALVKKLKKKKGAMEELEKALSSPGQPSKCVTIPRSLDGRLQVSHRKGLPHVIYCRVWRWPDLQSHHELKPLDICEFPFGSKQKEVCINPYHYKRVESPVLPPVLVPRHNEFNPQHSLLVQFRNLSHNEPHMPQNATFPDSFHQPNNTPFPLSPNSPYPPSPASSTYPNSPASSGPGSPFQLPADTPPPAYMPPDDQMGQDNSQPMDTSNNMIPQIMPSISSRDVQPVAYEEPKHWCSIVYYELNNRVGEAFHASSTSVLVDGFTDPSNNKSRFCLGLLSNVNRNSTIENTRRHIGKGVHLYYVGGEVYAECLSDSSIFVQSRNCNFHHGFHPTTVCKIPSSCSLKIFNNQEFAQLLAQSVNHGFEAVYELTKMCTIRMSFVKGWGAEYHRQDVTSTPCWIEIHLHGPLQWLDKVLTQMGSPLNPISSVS
UniProt Q9BRT3: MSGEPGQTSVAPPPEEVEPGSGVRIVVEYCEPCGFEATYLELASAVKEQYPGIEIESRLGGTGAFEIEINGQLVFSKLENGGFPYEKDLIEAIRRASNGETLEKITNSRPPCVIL
UniProt Q9BQ70: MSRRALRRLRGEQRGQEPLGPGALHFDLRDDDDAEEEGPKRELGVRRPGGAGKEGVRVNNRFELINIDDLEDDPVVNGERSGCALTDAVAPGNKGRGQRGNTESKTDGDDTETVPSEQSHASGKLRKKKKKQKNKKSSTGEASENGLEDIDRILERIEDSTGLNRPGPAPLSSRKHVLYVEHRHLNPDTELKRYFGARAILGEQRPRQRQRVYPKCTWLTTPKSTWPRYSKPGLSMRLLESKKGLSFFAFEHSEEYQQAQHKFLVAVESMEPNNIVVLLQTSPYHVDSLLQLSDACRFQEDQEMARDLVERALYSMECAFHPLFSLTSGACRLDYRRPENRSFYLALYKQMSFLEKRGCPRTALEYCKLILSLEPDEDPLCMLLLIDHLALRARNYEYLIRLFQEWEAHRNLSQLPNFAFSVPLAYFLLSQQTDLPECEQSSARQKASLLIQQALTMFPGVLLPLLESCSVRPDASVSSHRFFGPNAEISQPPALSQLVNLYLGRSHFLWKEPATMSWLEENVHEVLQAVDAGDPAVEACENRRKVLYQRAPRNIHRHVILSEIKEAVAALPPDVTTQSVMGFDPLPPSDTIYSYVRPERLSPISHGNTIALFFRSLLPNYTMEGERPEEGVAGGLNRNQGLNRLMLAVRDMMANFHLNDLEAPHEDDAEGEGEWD
UniProt Q9BW27: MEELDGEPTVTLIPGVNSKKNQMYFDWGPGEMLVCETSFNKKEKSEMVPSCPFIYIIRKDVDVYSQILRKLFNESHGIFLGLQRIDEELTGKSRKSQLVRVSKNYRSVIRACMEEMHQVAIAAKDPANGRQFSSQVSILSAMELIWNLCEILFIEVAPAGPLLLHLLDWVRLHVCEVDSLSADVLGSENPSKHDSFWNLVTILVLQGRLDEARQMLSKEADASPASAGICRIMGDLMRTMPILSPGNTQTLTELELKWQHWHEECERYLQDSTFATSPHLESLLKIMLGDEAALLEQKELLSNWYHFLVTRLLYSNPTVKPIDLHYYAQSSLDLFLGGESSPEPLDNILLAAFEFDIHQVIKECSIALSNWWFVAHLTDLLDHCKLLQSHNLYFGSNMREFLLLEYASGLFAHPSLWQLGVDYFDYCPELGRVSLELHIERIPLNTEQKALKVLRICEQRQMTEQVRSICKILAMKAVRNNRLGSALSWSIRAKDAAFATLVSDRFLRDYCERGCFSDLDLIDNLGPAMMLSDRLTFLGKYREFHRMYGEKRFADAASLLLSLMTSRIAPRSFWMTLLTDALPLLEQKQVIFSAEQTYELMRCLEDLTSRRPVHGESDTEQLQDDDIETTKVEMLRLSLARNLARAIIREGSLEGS
UniProt Q9BYB4: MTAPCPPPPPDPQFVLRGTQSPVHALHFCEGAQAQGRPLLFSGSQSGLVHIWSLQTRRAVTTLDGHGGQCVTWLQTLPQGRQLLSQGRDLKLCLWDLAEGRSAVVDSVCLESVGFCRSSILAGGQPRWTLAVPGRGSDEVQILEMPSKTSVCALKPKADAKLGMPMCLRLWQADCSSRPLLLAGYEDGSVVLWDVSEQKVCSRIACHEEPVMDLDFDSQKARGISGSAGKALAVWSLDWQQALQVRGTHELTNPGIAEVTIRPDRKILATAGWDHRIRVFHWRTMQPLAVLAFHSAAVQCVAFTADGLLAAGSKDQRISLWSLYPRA
UniProt Q9BWS9: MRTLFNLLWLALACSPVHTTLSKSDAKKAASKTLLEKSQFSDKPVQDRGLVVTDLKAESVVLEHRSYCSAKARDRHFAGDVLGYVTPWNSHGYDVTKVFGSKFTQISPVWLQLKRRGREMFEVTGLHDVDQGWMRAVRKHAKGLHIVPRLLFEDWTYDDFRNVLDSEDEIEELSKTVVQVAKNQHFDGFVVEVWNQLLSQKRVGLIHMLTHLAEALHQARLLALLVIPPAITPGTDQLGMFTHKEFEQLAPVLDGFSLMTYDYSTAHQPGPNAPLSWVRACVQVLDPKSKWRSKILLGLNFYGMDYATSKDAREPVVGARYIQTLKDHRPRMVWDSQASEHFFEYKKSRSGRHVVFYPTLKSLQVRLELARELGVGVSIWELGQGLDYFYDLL
UniProt Q99829: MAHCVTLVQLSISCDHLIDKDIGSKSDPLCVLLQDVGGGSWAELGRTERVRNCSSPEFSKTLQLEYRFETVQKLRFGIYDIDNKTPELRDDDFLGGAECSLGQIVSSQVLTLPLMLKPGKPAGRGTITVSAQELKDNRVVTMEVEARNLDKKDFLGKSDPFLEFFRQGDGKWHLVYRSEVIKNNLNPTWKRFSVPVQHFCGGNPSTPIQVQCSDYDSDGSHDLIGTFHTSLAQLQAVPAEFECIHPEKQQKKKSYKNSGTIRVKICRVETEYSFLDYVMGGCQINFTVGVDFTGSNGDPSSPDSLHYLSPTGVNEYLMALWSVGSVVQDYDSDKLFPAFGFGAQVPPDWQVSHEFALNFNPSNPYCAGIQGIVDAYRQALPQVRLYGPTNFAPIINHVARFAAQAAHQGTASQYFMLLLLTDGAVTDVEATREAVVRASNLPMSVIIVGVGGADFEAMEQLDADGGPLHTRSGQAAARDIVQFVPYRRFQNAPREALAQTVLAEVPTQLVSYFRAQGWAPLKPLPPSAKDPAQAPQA
UniProt Q9BVJ6: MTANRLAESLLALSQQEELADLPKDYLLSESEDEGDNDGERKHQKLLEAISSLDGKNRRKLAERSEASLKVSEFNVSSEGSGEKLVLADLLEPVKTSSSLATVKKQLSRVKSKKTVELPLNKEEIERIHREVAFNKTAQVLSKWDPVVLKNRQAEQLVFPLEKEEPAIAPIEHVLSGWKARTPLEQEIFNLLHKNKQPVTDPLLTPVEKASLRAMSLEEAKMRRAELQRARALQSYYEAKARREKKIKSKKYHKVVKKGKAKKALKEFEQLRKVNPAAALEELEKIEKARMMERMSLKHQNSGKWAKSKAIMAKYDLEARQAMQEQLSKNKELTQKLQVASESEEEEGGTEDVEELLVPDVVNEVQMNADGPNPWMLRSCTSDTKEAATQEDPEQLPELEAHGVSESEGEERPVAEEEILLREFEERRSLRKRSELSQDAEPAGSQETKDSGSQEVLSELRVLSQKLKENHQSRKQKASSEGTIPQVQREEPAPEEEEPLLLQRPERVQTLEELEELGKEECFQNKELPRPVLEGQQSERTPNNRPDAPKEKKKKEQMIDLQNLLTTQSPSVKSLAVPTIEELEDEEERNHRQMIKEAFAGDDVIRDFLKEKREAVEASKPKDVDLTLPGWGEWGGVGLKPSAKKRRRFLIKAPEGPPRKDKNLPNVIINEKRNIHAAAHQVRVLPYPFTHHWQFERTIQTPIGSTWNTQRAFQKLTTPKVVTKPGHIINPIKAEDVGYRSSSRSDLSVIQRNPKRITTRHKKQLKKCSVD
UniProt Q99622: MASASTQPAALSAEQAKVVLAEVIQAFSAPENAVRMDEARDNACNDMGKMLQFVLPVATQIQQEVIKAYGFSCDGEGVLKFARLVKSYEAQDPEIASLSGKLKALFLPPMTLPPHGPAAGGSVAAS
UniProt Q99661: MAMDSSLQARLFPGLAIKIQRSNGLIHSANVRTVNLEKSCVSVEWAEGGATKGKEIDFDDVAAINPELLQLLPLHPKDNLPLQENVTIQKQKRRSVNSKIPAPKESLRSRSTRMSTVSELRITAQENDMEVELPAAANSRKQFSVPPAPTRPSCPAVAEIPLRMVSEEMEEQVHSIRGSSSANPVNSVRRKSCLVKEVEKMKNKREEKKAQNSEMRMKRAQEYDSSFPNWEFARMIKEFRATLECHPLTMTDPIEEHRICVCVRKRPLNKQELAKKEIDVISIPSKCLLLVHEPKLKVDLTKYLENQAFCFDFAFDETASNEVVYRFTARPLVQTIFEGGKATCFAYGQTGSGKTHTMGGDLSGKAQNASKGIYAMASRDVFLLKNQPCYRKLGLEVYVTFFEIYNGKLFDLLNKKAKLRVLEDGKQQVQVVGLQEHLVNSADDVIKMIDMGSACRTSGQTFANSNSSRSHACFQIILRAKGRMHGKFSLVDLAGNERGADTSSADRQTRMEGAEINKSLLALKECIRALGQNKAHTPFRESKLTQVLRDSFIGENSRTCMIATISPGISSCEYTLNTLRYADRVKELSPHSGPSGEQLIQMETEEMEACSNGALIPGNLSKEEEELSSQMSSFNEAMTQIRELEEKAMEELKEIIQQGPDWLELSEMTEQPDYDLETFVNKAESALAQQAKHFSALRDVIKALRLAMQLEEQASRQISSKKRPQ

Compound: Nc1ncnc2c1ncn2[C@@H]1O[C@H](COP(=O)(O)OP(=O)(O)OP(=O)(O)O)[C@@H](O)[C@H]1O [adenosine triphosphate]
Test: NP40-soluble protein abundance relative to vehicle (solubility fold change) (ratio); higher = more soluble protein in presence of ATP
Outline: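 Jurkat crude lysate prepared with a Dounce homogeniser was treated at eight concentrations spanning 0.1 to 10 mM, 10 min at room temperature then 3 min at 37 °C. Solubilisation with 0.8% NP40 and benzonase and ultracentrifugation preceded TMT labelling of the supernatant for LC-MS/MS. Fold change against the detergent-processed vehicle was determined per replicate from vsn-normalised intensities, across three independent experiments.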

Target	NP40-soluble protein abundance (concentration: 0.1mM)	NP40-soluble protein abundance (concentration: 0.5mM)
UniProt Q99719 and related entries	1.07 ± 0.032	1.05 ± 0.031
UniProt Q99808 and related entries	0.996 ± 0.025	1.03 ± 0.012
NLN (UniProt Q9BYT8)	1.06 ± 0.089	1.04 ± 0.066
UniProt Q9BRK0-2|B4DE60 and related entries	0.882 ± 0.072	0.881 ± 0.15
HEMGN (UniProt Q9BXL5)	0.947 ± 0.052	0.94 ± 0.042
UniProt Q9BSD7	1.02 ± 0.024	1.088 ± 0.0027
UniProt Q9BSJ8 and related entries	1.04 ± 0.065	1.05 ± 0.08
SETD2 (UniProt Q9BYW2)	1.04 ± 0.04	1.05 ± 0.034
UniProt Q9BZQ6-2	1.03 ± 0.033	1.01 ± 0.021
UniProt Q9BXS5 and related entries	1.03 ± 0.12	1 ± 0.068
UniProt Q9BXP5-2|Q9BXP5-3|Q9BXP5-4	1 ± 0.02	1.06 ± 0.064
CNPY3 (UniProt Q9BT09)	0.914 ± 0.013	0.905 ± 0.046
UniProt Q9BXM9 and related entries	0.993 ± 0.055	0.99 ± 0.058
UniProt Q9BQT9 and related entries	1 ± 0.17	1.03 ± 0.093
SMAD5 (UniProt Q99717)	1.09 ± 0.067	1.03 ± 0.11
UniProt Q99873-3|Q99873-4	1.11 ± 0.17	1.12 ± 0.16
UniProt Q99871 and related entries	0.938 ± 0.046	0.895 ± 0.091
UniProt Q9BRT3	0.936 ± 0.053	0.898 ± 0.11
UniProt Q9BSB4	1.06 ± 0.1	1.06 ± 0.078
UniProt Q9BVV7	1 ± 0.04	0.999 ± 0.033

Target	NP40-soluble protein abundance (concentration: 0.1mM)	NP40-soluble protein abundance (concentration: 0.5mM)
NOC4L (UniProt Q9BVI4)	1.02 ± 0.062	1 ± 0.023
UniProt Q9BYT3 and related entries	0.887 ± 0.12	1.06 ± 0.047
TCF25 (UniProt Q9BQ70)	0.993 ± 0.03	0.988 ± 0.064
NUP85 (UniProt Q9BW27)	1.03 ± 0.081	1.02 ± 0.069
PSMB7 (UniProt Q99436)	0.97 ± 0.1	0.983 ± 0.04
UniProt Q9BRJ7 and related entries	1.03 ± 0.073	0.978 ± 0.045
MACROD1 (UniProt Q9BQ69)	0.989 ± 0.036	0.9694 ± 0.0022
NUP88 (UniProt Q99567)	1.03 ± 0.043	1.05 ± 0.053
GNB1L (UniProt Q9BYB4)	1.06 ± 0.067	1.07 ± 0.063
TXNDC17 (UniProt Q9BRA2)	1.16 ± 0.22	0.982 ± 0.063
UniProt Q9BWS9 and related entries	1.05 ± 0.092	1.06 ± 0.08
NIPSNAP1 (UniProt Q9BPW8)	1.04 ± 0.05	1.03 ± 0.053
UniProt Q9BZL4 and related entries	0.979 ± 0.013	0.988 ± 0.029
CPNE1 (UniProt Q99829)	1.03 ± 0.061	0.995 ± 0.052
UniProt Q9BV81	1 ± 0.052	0.959 ± 0.086
PUS3 (UniProt Q9BZE2)	1.04 ± 0.073	1.06 ± 0.045
ABHD6 (UniProt Q9BV23)	1.13 ± 0.14	1.07 ± 0.076
UniProt Q99728 and related entries	0.976 ± 0.087	1.05 ± 0.034
TTC1 (UniProt Q99614)	0.985 ± 0.034	0.9718 ± 0.0086
BRIP1 (UniProt Q9BX63)	1.09 ± 0.012	1.04 ± 0.055

As a short view, part of the list above.
Target	NP40-soluble protein abundance (concentration: 0.1mM)	NP40-soluble protein abundance (concentration: 0.5mM)
UniProt Q99808 and related entries	0.996 ± 0.025	1.03 ± 0.012
NLN (UniProt Q9BYT8)	1.06 ± 0.089	1.04 ± 0.066
UniProt Q9BRK0-2|B4DE60 and related entries	0.882 ± 0.072	0.881 ± 0.15
HEMGN (UniProt Q9BXL5)	0.947 ± 0.052	0.94 ± 0.042

(list continues)

Target	NP40-soluble protein abundance (concentration: 0.1mM)	NP40-soluble protein abundance (concentration: 0.5mM)
PAPOLG (UniProt Q9BWT3)	1.07 ± 0.082	1.11 ± 0.029
UniProt Q9BQI0 and related entries	0.85 ± 0.18	0.865 ± 0.14
UniProt Q9BVJ6 and related entries	1.01 ± 0.05	1.05 ± 0.047
IFIH1 (UniProt Q9BYX4)	1.03 ± 0.025	0.967 ± 0.068
UniProt Q9BQF6 and related entries	1.02 ± 0.036	1.11 ± 0.059
CARD11 (UniProt Q9BXL7)	1.012 ± 0.0013	0.9727 ± 0.0075
UCK2 (UniProt Q9BZX2)	1.03 ± 0.056	1.06 ± 0.064
UniProt Q99622 and related entries	0.904 ± 0.16	0.819 ± 0.22
UniProt Q9BY12 and related entries	1.02 ± 0.019	1.04 ± 0.084
MRPL1 (UniProt Q9BYD6)	0.953 ± 0.089	0.992 ± 0.056
TIPIN (UniProt Q9BVW5)	0.924 ± 0.058	0.889 ± 0.098
UniProt Q99504 and related entries	1.04 ± 0.062	1.08 ± 0.025
UniProt Q9BXW9 and related entries	0.9454 ± 0.0066	0.966 ± 0.037
TSG101 (UniProt Q99816)	0.972 ± 0.023	0.98 ± 0.035
RPAP1 (UniProt Q9BWH6)	0.979 ± 0.012	0.992 ± 0.05
KIF2C (UniProt Q99661)	1.02 ± 0.046	1.04 ± 0.055
BTBD2 (UniProt Q9BX70)	0.877 ± 0.043	0.955 ± 0.16
SH3GL2 (UniProt Q99962)	1 ± 0.075	1 ± 0.043
UniProt Q9BXS6 and related entries	0.947 ± 0.022	0.954 ± 0.015
UniProt Q9BZE1 and related entries	1.02 ± 0.14	1.11 ± 0.2
